The record followed here is patent publication US12246076B2 (PROVINCIAL HEALTH SERVICES AUTHORITY, priority 2022, dated 2025).

For some of these results: Some peptides are written in HELM: one residue between dots, names in brackets for other building blocks, links after the first $.

The nature of one data set: general procedure: Fmoc solid-phase peptide synthesis; Fmoc-Rink amide-MBHA resin. The note with it: whole synthesis.
The substance “DOTA-Pip-D-Phe-Gln-Trp-Ala-Val-Gly-His-Phe-Thz-NH2” registered an isolated yield of 31%.

A short description of another data set: general procedure: Fmoc solid-phase peptide synthesis; Fmoc-Rink Amide MBHA resin. The note with it: whole synthesis.
In the case of “DOTA-Pip-D-2-Nal-Gln-Trp-Ala-Val-Gly-His-Leu-Thz-NH2”, the isolated yield came to 38% yield.
Still for that read-out and setting: the result for “DOTA-Pip-D-Phe-Gln-Trp-Ala-Val-Gly-His-Leu-Thz-NH2” reads 30% yield.

Another data set can be described thus: general procedure: Fmoc solid-phase peptide synthesis; Fmoc-Rink amide-MBHA resin; Sieber resin for reduced-bond analogues. The conditions noted are these: late stage modification step.
Consider “Ga-LW01025: DOTA-Pip-D-Phe-Gln-Trp-Ala-Val-Gly-His-Leu-Thz-NH2”, for which the step yield is reported as 82%.
The same measure, in the same setting: the result for “Ga-LW01029: DOTA-Pip-D-2-Nal-Gln-Trp-Ala-Val-Gly-H is-Leu-Thz-NH2” reads 63%; that for “Ga-LW01045: DOTA-Pip-D-Phe-Gln-Trp-Ala-Val-Gly-His-Leu-ψ-Thz-NH2”, 72%.
The same measure, in the same setting: for “Ga-LW01059: DOTA-Pip-D-2-Nal-Gln-Trp-Ala-Val-Gly-His-Leu-ψ-Thz-NH2” the value was 67%; for “Ga-LW01090: DOTA-Pip-D-Phe-Gln-Trp-Ala-Val-NMe-Gly-His-Leu-ψ-Thz-NH2”, 75%.
Same read-out and setting: the result for “Ga-LW01102: DOTA-Pip-D-Phe-His-Trp-Ala-Val-Gly-His-LeuψThz-NH2” reads 43%.
As for “Ga-LW01107: DOTA-Pip-D-Phe-Gln-Trp-Ala-Val-Gly-NMe-His-Leu-Thz-NH2”, the step yield turned out to be 73%.
On the same count and under the same terms, the result for “Ga-LW01108: DOTA-Pip-D-Phe-Gln-Trp-Ala-Tle-Gly-His-Leu-Thz-NH2” reads 59%.
The same measure, in the same setting: the result for “Ga-LW01110: DOTA-Pip-D-Phe-Gln-Trp-Ala-Tle-Gly-NMe-His-Leu-Thz-NH2” reads 54%.
Turning to “Ga-LW01117: DOTA-Cysteic acid-Pip-D-2-Nal-Gln-Trp-Ala-Val-Gly-His-Leu-ψ-Thz-NH2”, the step yield turned out to be 57%.
The same measure, in the same setting: for “Ga-LW01142: DOTA-Pip-D-Phe-His-Trp-Ala-Tle-Gly-NMe-His-Leu-Thz-NH2” the value was 53%; for “Ga-LW01158: DOTA-Pip-D-Phe-Gln-Trp-Ala-Tle-Gly-His-LeuψThz-NH2”, 76%.
Still for that read-out and setting: for “Ga-LW01186: DOTA-Pip-D-Phe-Gln-αMe-Trp-Ala-Tle-Gly-His-LeuψThz-NH2” the value was 81%; for “Ga-LW02002: DOTA-Pip-D-Phe-Gln-Trp-Ala-Tle-N-Me-Gly-His-LeuψThz-NH2”, 77%.
As to “Ga-LW02021: DOTA-Pip-D-Phe-Gln-7-F-Trp-Ala-Val-Gly-His-Leu-Thz-NH2”, the step yield is given as 82%.
Still for that read-out and setting: the result for “Ga-LW02023: DOTA-Pip-D-Phe-Gln-5-Me-Trp-Ala-Val-Gly-His-Leu-Thz-NH2” reads 84%.
On the same count and under the same terms, for “Ga-LW02025: DOTA-Pip-D-Phe-Gln-2-Me-Trp-Ala-Val-Gly-His-Leu-Thz-NH2” the value was 81%; for “Lu-LW01090: DOTA-Pip-D-Phe-Gln-Trp-Ala-Val-NMe-Gly-His-Leu-ψ-Thz-NH2”, 47%; for “Lu-LW01110: DOTA-Pip-D-Phe-Gln-Trp-Ala-Tle-Gly-NMe-His-Leu-Thz-NH2”, 88%.
On the same count and under the same terms, for “Lu-LW01142: DOTA-Pip-D-Phe-His-Trp-Ala-Tle-Gly-NMe-His-Leu-Thz-NH2” the value was 61%.

The same data set, now with this note: whole synthesis.
Consider “D-Phe-Gln-Trp-Ala-Tle-Gly-His-Leu-Thz-NH2”, for which the isolated yield stood at 26%.
Still for that read-out and setting: for “D-Phe-Gln-Trp-Ala-Val-Gly-His-Leu-Thz-NH2” the value was 41%.
The same measure, in the same setting: the result for “D-Phe-Gln-Trp-Ala-Val-Gly-NMe-His-Leu-Thz-NH2” reads 29%; that for “DOTA- Pip-D-Phe-Gln-5-Me-Trp-Ala-Val-Gly-His-Leu-Thz-NH2”, 19%; that for “DOTA-Cysteic acid-Pip-D-2-Nal-Gln-Trp-Ala-Val-Gly-His-Leu-ψ-Thz-NH2”, 14%.
The same measure, in the same setting: the result for “DOTA-Pip-D-Phe-Gln-2-Me-Trp-Ala-Val-Gly-His-Leu-Thz-NH2” reads 16%.
For “DOTA-Pip-D-Phe-Gln-7-F-Trp-Ala-Val-Gly-His-Leu-Thz-NH2”, the isolated yield is on record as 33%.
Still for that read-out and setting: the result for “DOTA-Pip-D-Phe-Gln-Trp-Ala-Tle-Gly-His-Leu-Thz-NH2” reads 26%; that for “DOTA-Pip-D-Phe-Gln-Trp-Ala-Tle-Gly-NMe-His-Leu-Thz-NH2”, 11%; that for “DOTA-Pip-D-Phe-Gln-Trp-Ala-Val-Gly-NMe-His-Leu-Thz-NH2”, 19%.
Still for that read-out and setting: the result for “DOTA-Pip-D-Phe-His-Trp-Ala-Tle-Gly-NMe-His-Leu-Thz-NH2” reads 17%.
For “LW01090: DOTA-Pip-D-Phe-Gln-Trp-Ala-Val-NMe-Gly-His-Leu-ψ-Thz-NH2”, the isolated yield worked out at 32%.
Still for that read-out and setting: the result for “PEPTIDE1{[DOTA].[PipAc].[d2Nal].Q.W.A.V.G.H.[LeuR].[Thz].[am]}$$$$V2.0” reads 49%; that for “PEPTIDE1{[DOTA].[PipAc].[dF].Q.W.A.V.G.H.[LeuR].[Thz].[am]}$$$$V2.0”, 34%.
On the same count and under the same terms, the result for “PEPTIDE1{[DOTA].[PipAc].[dTpi].Q.W.A.V.G.H.[LeuR].[Thz].[am]}$$$$V2.0” reads 38%; that for “PEPTIDE1{[dF].Q.[Trp(2-Me)].A.V.G.H.L.[Thz].[am]}$$$$V2.0”, 23%; that for “PEPTIDE1{[dF].Q.[Trp(5-Me)].A.V.G.H.L.[Thz].[am]}$$$$V2.0”, 33%.
The same measure, in the same setting: for “PEPTIDE1{[dF].Q.[Trp(7-F)].A.V.G.H.L.[Thz].[am]}$$$$V2.0” the value was 24%.

A further data set can be described thus: general procedure: Fmoc solid-phase peptide synthesis; Sieber resin. The conditions noted are these: whole synthesis.
With “DOTA-Pip-D-Phe-Gln-Trp-Ala-Tle-Gly-His-LeuψThz-NH2”, the isolated yield stood at 32%.
Same read-out and setting: the result for “DOTA-Pip-D-Phe-Gln-Trp-Ala-Tle-N-Me-Gly-His-LeuψThz-NH2” reads 17%; that for “DOTA-Pip-D-Phe-Gln-Trp-Ala-Val-N-MeGly-His-LeuψPro-NH2”, 37%; that for “DOTA-Pip-D-Phe-Gln-αMe-Trp-Ala-Tle-Gly-His-LeuψThz-NH2”, 7.7%.
Still for that read-out and setting: the result for “DOTA-Pip-D-Phe-His-Trp-Ala-Val-Gly-His-LeuψThz-NH2” reads 35%.
